Values from PubChem BioAssay AID1259405 (NCATS, 2018).
Shown is an unselected part of about 50,000 reagents tested. About 4,000 of all reagents (8%) count as active. 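Mouse siRNA library applied to hamster cells; one well for each siRNA.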

Aim: 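Knock-downs that lift recombinant protein yield in hamster ovary cells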 (primary screen)
Cell system: Chinese hamster CHO-K1 ovary cells with stable secreted eGFP expression
Knock-down reagent: single siRNA against mouse genes, 0.8 pmol siRNA per well (2 µl of 400 nM stock)
Time to read-out: 3 days
Read-out: 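Per-well intracellular GFP measured by laser scanning cytometry, plus viability from ATP luminescence, each relative to plate median of non-targeting control wells, in %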
Scale: GFP, % of control: higher = more GFP per well, higher productivity; viability (ATP), % of control: higher = more viable cells (more ATP)
Call rule: 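a knock-down is called active if GFP reaches 120% or more of non-targeting control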

no.	target	PubChem SID	GFP, % of control	viability (ATP), % of control	Outcome
1	Nfkbiz	SID363542870	106	69.3	inactive
2	Nfkbiz	SID363546387	44.3	21.9	inactive
3	Nfkbiz	SID363548143	98.4	112	inactive
4	Lrrc23	SID363540243	47.5	68.9	inactive
5	Lrrc23	SID363541995	62.2	58.8	inactive
6	Lrrc23	SID363566911	94.2	59.5	inactive
7	Nefh	SID363562211	48.9	79.6	inactive
8	Nefh	SID363567349	67.8	35.6	inactive
9	Nefh	SID363584706	88.6	51.1	inactive
10	Mug1	SID363555337	131	101	active
11	Mug1	SID363563998	65.9	60.2	inactive
12	Mug1	SID363587544	105	98.6	inactive
13	Hoxb6	SID363573528	116	90.1	inactive
14	Hoxb6	SID363581272	34	45.1	inactive
15	Hoxb6	SID363583736	105	93.2	inactive
16	Aspdh	SID363540847	198	113	active
17	Aspdh	SID363543298	64.8	66	inactive
18	Aspdh	SID363552791	37.1	47.6	inactive
19	Nudt22	SID363540710	79.9	76.7	inactive
20	Nudt22	SID363543161	79.1	85.5	inactive
21	Nudt22	SID363552654	96.1	115	inactive
22	Stom	SID363541206	53	52.7	inactive
23	Stom	SID363555833	81.5	74.8	inactive
24	Stom	SID363566122	83.6	75.4	inactive
25	Tmem186	SID363542544	77.8	76	inactive
26	Tmem186	SID363552035	44.7	59.7	inactive
27	Tmem186	SID363559640	84.3	103	inactive
28	Smc5	SID363568974	152	101	active
29	Smc5	SID363583406	103	98.2	inactive
30	Btg3	SID363547060	51.6	74.4	inactive
31	Btg3	SID363549872	99.7	89.3	inactive
32	Btg3	SID363587926	107	141	inactive
33	Bckdhb	SID363575221	100	122	inactive
34	Bckdhb	SID363580853	107	60	inactive
35	Bckdhb	SID363582965	61.7	76.3	inactive
36	Gbp6	SID363545095	85.2	74.4	inactive
37	Gbp6	SID363548608	61.3	60.8	inactive
38	Gbp6	SID363562414	111	75.4	inactive

Next part (8 carried over from the part before).
no.	target	PubChem SID	GFP, % of control	viability (ATP), % of control	Outcome
31	Btg3	SID363549872	99.7	89.3	inactive
32	Btg3	SID363587926	107	141	inactive
33	Bckdhb	SID363575221	100	122	inactive
34	Bckdhb	SID363580853	107	60	inactive
35	Bckdhb	SID363582965	61.7	76.3	inactive
36	Gbp6	SID363545095	85.2	74.4	inactive
37	Gbp6	SID363548608	61.3	60.8	inactive
38	Gbp6	SID363562414	111	75.4	inactive
39	Ints4	SID363544012	110	79.4	inactive
40	Ints4	SID363551748	56.6	78	inactive
41	Ints4	SID363559353	74.3	76.1	inactive
42	H2bc8	SID363539969	42.1	56.5	inactive
43	H2bc8	SID363561270	86.2	93.3	inactive
44	H2bc8	SID363564306	89.1	80.9	inactive
45	Dnajc16	SID363541632	43.7	53.9	inactive
46	Dnajc16	SID363553224	75.3	60.7	inactive
47	Dnajc16	SID363566548	86.5	56.8	inactive
48	Grwd1	SID363540115	56.2	76.8	inactive
49	Grwd1	SID363561416	168	67.9	active
50	Grwd1	SID363564452	93.7	70.9	inactive
51	Grwd1	SID363589858	123	90.8	active
52	Grwd1	SID363589859	96.2	76.1	inactive
53	Grwd1	SID363589860	63.2	76.7	inactive
54	Nr2e3	SID363571102	131	69.5	active
55	Nr2e3	SID363571454	65.7	73.9	inactive
56	Nr2e3	SID363571806	53.3	43.7	inactive
57	Dennd1a	SID363552442	90.8	50.7	inactive
58	Dennd1a	SID363585578	87.3	82	inactive
59	Dennd1a	SID363585929	124	131	active
60	Cdo1	SID363572923	59.9	41.9	inactive
61	Cdo1	SID363577499	91	78.3	inactive
62	Cdo1	SID363581019	90.6	74.7	inactive
63	Btla	SID363547043	52.9	33.4	inactive
64	Btla	SID363549855	89.9	107	inactive
65	Btla	SID363587909	107	111	inactive
66	Extl2	SID363545418	61.2	72.7	inactive
67	Extl2	SID363548931	74.1	56.8	inactive
68	Extl2	SID363562737	74.8	61.7	inactive
69	Fxyd6	SID363574253	117	107	inactive
70	Fxyd6	SID363575309	59.9	66.6	inactive
71	Fxyd6	SID363579885	42.2	64.3	inactive
72	Htr1f	SID363571395	70.1	58.5	inactive
73	Htr1f	SID363571747	59	87.9	inactive
74	Htr1f	SID363572099	59.4	67.7	inactive
75	Nbn	SID363545871	67.8	45.5	inactive
76	Nbn	SID363549384	90.9	74.2	inactive
77	Nbn	SID363563190	65.6	51.8	inactive
78	Alox5	SID363572912	70.8	72.3	inactive
79	Alox5	SID363577488	75.5	82.5	inactive
80	Alox5	SID363581008	25	48	inactive
81	Gstt4	SID363545416	95.5	62.8	inactive
82	Gstt4	SID363548929	40.5	64.7	inactive
83	Gstt4	SID363562735	60.9	58.1	inactive
84	Sgsm2	SID363545185	78.2	24	inactive
85	Sgsm2	SID363548698	81	66.3	inactive
86	Sgsm2	SID363562504	65.9	61.5	inactive
